The exact form of at least one protein or probe is not confirmed. At least one verdict rests on a figure or table, not on a statement of the authors. Tags and fusion partners may be left off the protein sequences shown.
Target: T1, CTCF Y226C (UniProt P49711)
T1 sequence (looked up): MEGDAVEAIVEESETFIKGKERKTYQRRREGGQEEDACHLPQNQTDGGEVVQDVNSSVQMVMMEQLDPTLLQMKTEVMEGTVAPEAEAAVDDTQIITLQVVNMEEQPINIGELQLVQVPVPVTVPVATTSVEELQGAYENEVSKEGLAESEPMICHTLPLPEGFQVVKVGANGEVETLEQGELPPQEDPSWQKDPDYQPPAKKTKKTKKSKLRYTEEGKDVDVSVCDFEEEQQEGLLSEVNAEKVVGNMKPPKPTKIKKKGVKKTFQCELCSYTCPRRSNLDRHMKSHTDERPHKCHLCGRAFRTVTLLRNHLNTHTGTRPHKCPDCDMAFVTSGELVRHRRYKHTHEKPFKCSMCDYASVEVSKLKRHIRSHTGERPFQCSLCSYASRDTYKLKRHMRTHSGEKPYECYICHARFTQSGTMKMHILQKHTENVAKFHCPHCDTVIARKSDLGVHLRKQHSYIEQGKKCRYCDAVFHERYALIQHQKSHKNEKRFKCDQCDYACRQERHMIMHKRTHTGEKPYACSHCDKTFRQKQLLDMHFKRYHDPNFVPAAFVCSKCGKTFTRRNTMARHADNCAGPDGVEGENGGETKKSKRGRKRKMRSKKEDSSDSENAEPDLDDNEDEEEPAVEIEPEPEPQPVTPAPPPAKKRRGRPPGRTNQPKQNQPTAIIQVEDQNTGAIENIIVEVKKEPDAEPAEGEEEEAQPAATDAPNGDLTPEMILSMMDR
Experiment: pull-down
Conditions: densitometry only in figure; TnT lysate protein with bead-bound DNA, 3 h at 4 C; beads washed before and after binding in PIB; protein translated in vitro; residues 1-727; protein details: FLAG (pcDNA3.1-FLAG); label: 5' biotin on S3 strand

AGGACCAGCAGGGGGCGCA (double strand) [core CTCF binding site probe]
binding result: binds

Source: PMC8629902, “Structure–function relationships explain CTCF zinc finger mutation phenotypes in cancer”
